Consider one sequence from paper PMC11555678 (ACS Infectious Diseases, 2024).

Plain letter strings leave the end groups untold.

Data set [1] in a line: general procedure: Fmoc solid-phase peptide synthesis; HCTU. To be noted: whole synthesis, 220nm.
The nature of data set [2]: general procedure: Fmoc solid-phase peptide synthesis; Wang resin; HCTU. To be noted: whole synthesis, scale 0.1 mmol.

In the case of WGGIKONYA, in data set [1], the “final HPLC purity” value was over 95%. This sequence came in with an isolated yield in data set [2] of 66.0%.
